Results are given in words; binding and its absence hold for the method and conditions named. A result given as binding can be weak or reduced; the word gives no strength.
Legend:
[1] = target: hIL1RAP(21-367) (人); experiment: BLI (BLItz), protein A sensor
[2] = target: hIL1RAP(21-367) (人); experiment: ELISA on coated IL1RAP orthologs
[3] = target: hIL1RAP(21-367) (人); experiment: conclusion of Example 10 (ELISA, BLI)

binding [1]: binds
binding [2]: binds
binding [3]: binds
B1: 嵌合48D2 (antibody, V domains shown)
VH: QEQLEESGGGLVKPGGSLTLTCTVSGPSLSHFDITWVRQAPGSGLEWIGTISPGVSTYYASWAKSRSTITSNTNLNTVTLKMTSLTAADTATYFCARGGVGSSWKAFDLWGPGTLVTISS
VL: APVLTQTPASVEVAVGGTVTIKCQASESISTALAWYQQKPGQPPKLLIYKASTLPSGVSSRFKGSGSGTEFALTISDLECDDAATYYCQQGFSSGNVHNAFGGGTEVVVK

— patent CN116724055A
